# Source: PubChem BioAssay AID493014 (National Center for Advancing Translational Sciences (NCATS), 2011)
# The list shows a part of the results. The main result of the screen is listed elsewhere. These columns were measured beside it and carry no call. Most of these compounds were active or inconclusive in the main read-out, so they are no random draw. The note in brackets gives the kind of curve behind each potency; many fits are weak.
# Experiment: qHTS Assay to Find Inhibitors of Chronic Active B-Cell Receptor Signaling
# Conditions: ABC-DLBCL IkBa-CBG/CBR reporter, luminescence ratio (green luciferase fused to IkBa over red control in TMD8 lymphoma cells), 4 h
# In short: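 Compounds up to 46 uM were incubated four hours with TMD8 cells whose green CBG68 luciferase is fused to IkappaBalpha; red CBR luminescence normalised the signal, and concentration-effect curves were fitted to fusion, red and ratio data.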
# [1] = measured here: CBR red luminescence, cell number
# [2] = measured here: IkBa-CBG green luminescence
Compound,AC50 [1],AC50 [2]
COc1ccc(C2(O)CCN(C(=O)c3ccc4c(c3)OCO4)CC2)cc1,"20.6 µM [rising, single point]",–
O=Cc1c[nH]c2cccc(OCc3ccccc3)c12,"18.4 µM [falling, single point]",–
C/C(=N\NC1=N[C@H]2CS(=O)(=O)C[C@H]2S1)c1ccccc1,"35.5 µM [rising, single point]",–
CC(C)(C)c1cc(C(=O)NNc2cc(C(F)(F)F)ccc2Cl)n(Cc2ccccc2)n1,"35.5 µM [falling, single point]",–
O=S(=O)(NCCCCCNS(=O)(=O)c1ccccc1)c1ccccc1,"1.64 µM [falling, partial curve, poor fit]",–
NC(=O)SCC(=O)Nc1ccc(Cl)cc1,"10 µM [falling, partial curve, poor fit]",–
C[C@@H](NC(=O)[C@@H]1Cc2ccccc2CN1)C(=O)Nc1ccc2c(c1)OCCO2,"11.2 µM [falling, partial curve]",–
O=C(CSc1ncn[nH]1)N1N=C(c2ccc(Cl)cc2)CC1c1ccco1 (stereo not drawn),"25.1 µM [falling, single point]",–
COc1cccc(N2CC(NC(=O)CCCc3ccccc3)CC2=O)c1 (stereo not drawn),"1.78 µM [rising, partial curve]",–
COc1ccc(OC)c(/C=N/NC(=O)c2[nH]nc3c2CCc2ccccc2-3)c1,"10.3 µM [falling, partial curve, poor fit]",–
CCCCN1CC2([N+](=O)[O-])C=CC(=O)C([N+](=O)[O-])(C1)C2CC(=O)c1ccccc1 (stereo not drawn),"11.6 µM [rising, partial curve, poor fit]",–
Cc1ccc(C2=Nc3ccccc3SC(c3cccc([N+](=O)[O-])c3)C2)cc1 (stereo not drawn),"20 µM [rising, single point]","35.5 µM [falling, single point]"
CCOC(=O)c1c(-c2ccccc2)n(C)c2ccc(O)cc12,"9.2 µM [rising, partial curve, poor fit]",–
COC(CNC(=O)c1ccc2c3c(onc13)-c1ccccc1C2=O)OC,"35.5 µM [falling, single point]","7.08 µM [rising, partial curve, poor fit]"
O=C(/C=C/c1ccc(F)cc1)Nc1ccc2[nH]c(=O)[nH]c2c1,"35.5 µM [falling, single point]",–
Cc1cc(=O)oc2ccc(OCC(=O)NCc3ccco3)cc12,"2.06 µM [rising, partial curve, poor fit]",–
COc1cccc(Nc2sc(C(=O)c3ccc(F)cc3)c(N)c2C(=O)NCc2ccc(Cl)cc2)c1,"35.5 µM [falling, single point]",–
CCOC(=O)c1ccc(NC(=O)CC2SC3=NCCN3C2=O)cc1 (stereo not drawn),"0.708 µM [rising, full curve, poor fit]",–
Cc1cccc(N2CSC3=C(C#N)C(c4ccc(C)o4)CC(=O)N3C2)c1 (stereo not drawn),"12.6 µM [rising, single point]",–
Cc1cccc2nc(CSc3ccc(Cl)cc3)cn12,"8.91 µM [falling, partial curve]",–
S=C(NCCc1ccccc1)NC1CC1,"8.2 µM [rising, partial curve, poor fit]",–

# A draw from above in order of molecular weight, low to high:
Compound,AC50 [1],AC50 [2]
O=C(/C=C/c1ccc(F)cc1)Nc1ccc2[nH]c(=O)[nH]c2c1,"35.5 µM [falling, single point]",–
COc1cccc(N2CC(NC(=O)CCCc3ccccc3)CC2=O)c1 (stereo not drawn),"1.78 µM [rising, partial curve]",–
COc1cccc(Nc2sc(C(=O)c3ccc(F)cc3)c(N)c2C(=O)NCc2ccc(Cl)cc2)c1,"35.5 µM [falling, single point]",–

# Structures above that contain two or more sulfur atoms:
Compound,AC50 [1],AC50 [2]
C/C(=N\NC1=N[C@H]2CS(=O)(=O)C[C@H]2S1)c1ccccc1,"35.5 µM [rising, single point]",–
O=S(=O)(NCCCCCNS(=O)(=O)c1ccccc1)c1ccccc1,"1.64 µM [falling, partial curve, poor fit]",–

# (list continues)

Compound,AC50 [1],AC50 [2]
COc1ccc(NC(=O)NNC(=O)c2ccc(-c3ccccc3)cc2)c(OC)c1,"12.6 µM [rising, partial curve]",–
Cc1cccc(C)c1NC(=O)c1cn(-c2ccccc2)nc1-c1ccccc1,"3.66 µM [rising, full curve]",–
CCOCCCNc1ncnc2c1cnn2-c1ccc(C)c(C)c1,"3.98 µM [falling, full curve, poor fit]",–
CN(C)c1ccc(/C=N/N(CCC#N)C2=NS(=O)(=O)c3ccccc32)cc1,"35.5 µM [rising, single point]",–
CCOC(=O)Cc1csc(SCC(=O)Nc2sc3c(c2C(N)=O)CCC3)n1,"14.1 µM [falling, single point]",–
Cc1ccc(S(=O)(=O)N2CCN(C(=O)CSc3nnnn3C)C2)cc1,"0.00461 µM [rising, full curve, poor fit]",–
COC(=O)c1cc2ccsc2n1CC(=O)Nc1cc(C)cc(C)c1,"5.8 µM [falling, partial curve, poor fit]",–
COc1ccc(CCN2C(=O)NC(NS(=O)(=O)c3ccc(Cl)cc3)(C(F)(F)F)C2=O)cc1OC (stereo not drawn),"2.82 µM [rising, single point]",–
Cc1nnc2ccc(-c3ccc(NC(=O)c4ccc(Cl)nc4)cc3)nn12,"10 µM [rising, partial curve, poor fit]",–
COCC(C)n1c(SCC(=O)Nc2nccs2)nc2ccccc2c1=O (stereo not drawn),"29.1 µM [rising, single point]",–
CC(C)CC(=O)/C(=C\c1ccc(Cl)cc1Cl)n1cncn1,"20.6 µM [falling, partial curve]","29.1 µM [rising, single point]"
COc1ccc(Cl)cc1S(=O)(=O)n1cnc2ccccc21,"1.64 µM [falling, partial curve, poor fit]",–
CCOc1ccc(N2C(=O)C(Cl)=C(Nc3ccccc3O)C2=O)cc1,"0.184 µM [falling, full curve, poor fit]",–
CC1=CC(C)(C)N(C)C(=O)N1c1ccc(Cl)cc1,"3.98 µM [rising, full curve, poor fit]",–
c1ccc(-c2ccccc2OCCOCCN2CCc3ccccc3C2)cc1,"22.4 µM [falling, single point]",–
COc1ccc(C(=O)OCC(=O)Nc2cc(C)c(C)cc2[N+](=O)[O-])cc1,"6.51 µM [rising, single point]",–
CCOC(=O)C1(Cc2cccc(Cl)c2)CCCN(C(=O)c2c(CC)noc2C)C1 (stereo not drawn),"35.5 µM [falling, single point]",–
CC(/C=N/NC(=O)c1n[nH]c2c1CCC2)=C\c1ccccc1,"2.91 µM [rising, full curve]","4.61 µM [falling, partial curve, poor fit]"
O=C(CN1CCN(S(=O)(=O)c2ccc(Br)cc2)CC1)N/N=C/c1ccc(Cl)c([N+](=O)[O-])c1,"29.1 µM [falling, single point]",–
COC(=O)c1c(NC(=O)CN2CCC3(O)CCCCC3C2c2ccc(F)cc2)sc(C)c1C (stereo not drawn),"16.4 µM [falling, single point]",–
COC(=O)CCC(=O)Nc1cccc(Cl)c1,"5.8 µM [rising, full curve, poor fit]","10.3 µM [rising, partial curve, poor fit]"

Compound,AC50 [1],AC50 [2]
Cc1ccc(NC(=O)C(CC(=O)O)C2CCCO2)c(C)c1 (stereo not drawn),"31.6 µM [rising, single point]",–
CCCCOc1ccc(C(=O)C(CN2CCOCC2)c2ccccc2)cc1 (stereo not drawn),"18.4 µM [falling, single point]","20.6 µM [rising, single point]"
COc1cccc2c1OCC/C2=N\NC(=O)COc1ccccc1C,"7.31 µM [rising, partial curve, poor fit]",–
O=C(Nc1ccc(Cl)cc1)Nc1ccc2c(c1)N1CCN=C1S2,"0.0891 µM [rising, full curve]",–
CCCCc1cc(=O)oc2c(C)c(OCC(=O)NCCN3CCOCC3)ccc12,"12.6 µM [rising, partial curve, poor fit]",–
CCc1nc(Nc2ccc(F)cc2)c2oc3ccccc3c2n1,"1 µM [falling, partial curve, poor fit]",–
COc1ccc(/C=N\Nc2ccccn2)c(OC)c1,"0.447 µM [rising, full curve, poor fit]",–
CCOC(=O)c1ccc(NC(=O)CSc2nnc(COc3ccccc3OC)n2C)cc1,"29.1 µM [rising, partial curve, poor fit]",–
CCc1sc(N(C(=O)Cc2ccccc2)c2ccccc2F)nc1-c1ccc(C)cc1,"2.06 µM [falling, full curve, poor fit]",–
Cc1cc(C)n(-c2nncc(-c3ccccc3)n2)n1,"14.1 µM [falling, partial curve]",–
Cc1ccc(CC(=O)O/N=C(\N)c2ccncc2)cc1,"10 µM [rising, partial curve, poor fit]",–
CN(C)S(=O)(=O)c1cccc(NC(=S)NNC(=O)c2cc3ccccc3cc2O)c1,"8.2 µM [falling, partial curve]",–
CCOC(=O)N1CCN(C(=O)CCN2C(=O)COc3ccccc32)CC1,"35.5 µM [rising, single point]",–
CC(C)(C)c1cc(Cl)ccc1OCCOCCN1CCCC1,"11.2 µM [falling, partial curve]",–
Cc1ccc(-c2nnc(SCC#N)n2N)cc1,"32.6 µM [rising, partial curve, poor fit]",–
O=[N+]([O-])c1c(Nc2ccc(O)cc2)cc(Cl)c2nonc12,"3.55 µM [falling, full curve]",–
COc1ccccc1C(OC(=O)c1ccco1)C(=O)NC(C)(C)C (stereo not drawn),"3.55 µM [falling, partial curve]",–
O=C1/C(=C\c2ccco2)SC(=S)N1C1CCCCC1,"11.2 µM [rising, partial curve, poor fit]",–
O=S(Cc1ccc(Br)cc1)Cc1nnc(SCc2ccc(Br)cc2)n1-c1ccccc1 (stereo not drawn),"16.4 µM [falling, partial curve, poor fit]",–
CC1=CC(=O)C=C(C)C1=NOC(=O)c1cccc([N+](=O)[O-])c1,"1.84 µM [rising, partial curve, poor fit]",–
